Measured values taken from PubChem BioAssay (NCATS).
The list shows a part of the results. Some structures show a salt or complex split into parts, the way the source records it.

Chains of the proteins cited; added tags and fusions are not shown.
UniProt P11086, whole entry: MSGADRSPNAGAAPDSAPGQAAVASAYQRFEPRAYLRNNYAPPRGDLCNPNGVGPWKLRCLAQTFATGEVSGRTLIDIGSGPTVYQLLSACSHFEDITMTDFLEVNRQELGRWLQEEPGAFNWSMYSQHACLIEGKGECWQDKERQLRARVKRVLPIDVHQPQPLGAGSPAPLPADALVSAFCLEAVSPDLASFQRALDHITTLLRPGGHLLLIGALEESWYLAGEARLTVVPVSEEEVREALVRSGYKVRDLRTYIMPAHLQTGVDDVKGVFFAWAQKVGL

Target: Phenylethanolamine N-methyltransferase (Homo sapiens) (UniProt P11086)
Test: Confirmatory Screen for Target Class Profiling of Small Molecule Inhibitors of Methyltransferases (AID 1745852)
Details: MTase-Glo luminescence, SAH detection, recombinant enzyme; measured here: PNMT max response; stronger effect = lower value

SMILES	activity [%]
CN(C(=O)Cc1ccc(Cl)c(Cl)c1)[C@@H]1CCCC[C@@H]1N1CCCC1	6.42
N[C@@H](Cc1ccc([N+]([O-])(CCCl)CCCl)cc1)C(=O)O	5.12
CN(C(=O)Cc1ccc(Cl)c(Cl)c1)[C@H]1CCCC[C@H]1N1CCCC1	0.274
C/C1=C2N=C(/C=C3N=C(/C(C)=C4\N=C(C(CC(N)=O)C4(C)CCC(=O)NCC(C)OP(=O)([O-])OC4C(CO)OC(n5cnc6cc(C)c(C)cc65)C4O)C4(C)N=C1C(CCC(N)=O)C4(C)CC(N)=O)C(CCC(N)=O)C\3(C)C)C(CCC(N)=O)C/2(C)CC(N)=O.[C-]#N.[Co] (configuration not stated)	-28.1

Test system: not listed separately
Test: qHTS drug screen for cell cycle checkpoint inhibitors in PARPi-resistant BRCA-mutant ovarian cancer cell lines. (AID 1963452)
Details: PEO1/OlaR viability, CellTiter-Glo luminescence, 96 h; measured here: PEO1 parental Z-AUC; stronger effect = lower value
Source text: Women's Malignancies Branch, Center for Cancer Research (CCR),
National Cancer Institute (NCI), National Institutes of Health (NIH), Bethesda, MD
Poly (ADP-ribose) polymerase inhibitors (PARPis) have changed the treatment paradigm in breast cancer gene (BRCA) - mutant high-grade serous ovarian carcinoma (HGSC). However, most patients eventually develop resistance to PARPis, highlighting an unmet need for improved therapeutic strategies. Using high-throughput drug screens, we identified ataxia telangiectasia and rad3-related protein/checkpoint kinase 1 (CHK1) pathway inhibitors as cytotoxic and further validated the activity of the CHK1 inhibitor (CHK1i) prexasertib in PARPi-sensitive and -resistant BRCA-mutant HGSC cells and xenograft mouse models. CHK1i monotherapy induced DNA damage, apoptosis, and tumor size reduction. We then conducted a phase 2 study (NCT02203513) of prexasertib in patients with BRCA-mutant HGSC. The treatment was well tolerated but yielded an objective response rate of 6% (1 of 17; one partial response) in patients with previous PARPi treatment. […] BRCA reversion mutation in previously PARPi-treated BRCA-mutant patients was not associated with resistance to CHK1i.
Among others, 1082 oncology drugs, both approved and investigational, were prioritized based on their status in clinical trial development. […] Drugs with average Z-AUC values less than -1.0 in all three cell lines were classified as "hits" resulting in 151 oncology drug hits. The screen also confirmed cross-resistance between olaparib and other PARPis (rucaparib, niraparib, and talazoparib) in PARPi-resistant PEO1/OlaR and PEO4.
[1] G. L. Lin, K. M. Wilson, M. Ceribelli, B. Z. Stanton, P. J. Woo, S. Kreimer, E. Y. Qin, X. Zhang, J. Lennon, S. Nagaraja, P. J. Morris, M. Quezada, S. M. Gillespie, D. Y. Duveau, A. M. Michalowski, P. Shinn, R. Guha, M. Ferrer, C. Klumpp-Thomas, S. Michael, C. McKnight, P. Minhas, Z. Itkin, E. H. Raabe, L. Chen, R. Ghanem, A. C. Geraghty, L. Ni, K. I. Andreasson, N. A. Vitanza, K. E.Warren, C. J. Thomas, M. Monje, Therapeutic strategies for diffuse midline glioma from high-throughput combination drug screening. Sci. Transl. Med. 11, (2019).
[2] T. M. Yamamoto, A. McMellen, Z. L. Watson, J. Aguilera, R. Ferguson, E. Nurmemmedov, T. Thakar, G. L. Moldovan, H. Kim, D. M. Cittelly, A. M. Joglar, E. P. Brennecke, H. Wilson, K. Behbakht, M. J. Sikora, B. G. Bitler, Activation of Wnt signaling promotes olaparib resistant ovarian cancer. Mol. Carcinog. 58, 1770 - 1782 (2019).
PROTOCOL TABLE (as described by Inglese J, Shamu CE and Guy RK. 2007)
SEQUENCE No. (e.g., 1, 2, 3, etc.); […] (e.g., Cells, Incubation, Reagent, etc.); VALUE; DESCRIPTION.
1; Compounds; 20nL; 1536-well white tissue culture-treated plates.
2; Cells; 5 uL; PEO1, PEO4, and PEO1/OlaR cells at 600 cells per well.
3; Incubation; 96 hr; 37C, 95% humidity, 5% CO2.
4; Reagent; 3 uL; CellTiter-Glo (Promega).
5; Incubation; 15 min; room temperature.
6; Detection; Luminescence, PHERAstar (BMG Labtech) plate reader.
NOTES (numbers refer to Sequence numbers above)
1. MIPE 5.0 compounds were acoustically dispensed by Echo Acoustic Liquid Handler (Beckman Coulter Life Sciences). Each compound was plated at an 11-point concentration range with 1:3 dilution. Bortezomib, a proteasome inhibitor (final concentration, 20 uM), was used as a positive.
2. PEO1, PEO4, and PEO1/OlaR were trypsinized and dispensed in 5 uLof growth medium using a Multidrop Combi dispenser at a density of 600 cells per well to allow compounds to be present during the exponential growth phase.
3. Plates were incubated for 96 hours at standard incubator conditions and covered by a stainless steel gasketed lid to prevent evaporation.
4. Three microliters of CellTiter-Glo (Promega) were added to each well.
5. Plates were incubated at room temperature for 15 min with a stainless-steel lid in place.
6. Luminescence readings were taken using PHERAstar (BMG Labtech). […]

SMILES	Z-AUC
C/C1=C2/N=C(C(CC(N)=O)C2(C)CCC(=O)NCC(C)OP(=O)([O-])OC2C(CO)OC(n3cnc4cc(C)c(C)cc43)C2O)C2(C)N=C(/C(C)=C3N=C(/C=C4N=C1C(CCC(N)=O)C\4(C)C)C(CCC(N)=O)C/3(C)CC(N)=O)C(CCC(N)=O)C2(C)CC(N)=O.[C-]#N.[Co] (configuration not stated)	1.41
CCn1c(=O)n([C@@H]2CCN(CC3CCCCCCC3)C[C@H]2CO)c2ccccc21	-0.399
CN(C)C1(c2ccccc2)CCC2(CC1)OCCc1c2[nH]c2ccc(F)cc12 (configuration not stated)	0.0539
N[C@@H](Cc1ccc([N+]([O-])(CCCl)CCCl)cc1)C(=O)O	0.112

Same assay, conditions: PEO1/OlaR viability, CellTiter-Glo luminescence, 96 h; measured here: PEO4 Z-AUC; stronger effect = lower value

SMILES	Z-AUC
C/C1=C2/N=C(C(CC(N)=O)C2(C)CCC(=O)NCC(C)OP(=O)([O-])OC2C(CO)OC(n3cnc4cc(C)c(C)cc43)C2O)C2(C)N=C(/C(C)=C3N=C(/C=C4N=C1C(CCC(N)=O)C\4(C)C)C(CCC(N)=O)C/3(C)CC(N)=O)C(CCC(N)=O)C2(C)CC(N)=O.[C-]#N.[Co] (configuration not stated)	1.25
CCn1c(=O)n([C@@H]2CCN(CC3CCCCCCC3)C[C@H]2CO)c2ccccc21	0.46
CN(C)C1(c2ccccc2)CCC2(CC1)OCCc1c2[nH]c2ccc(F)cc12 (configuration not stated)	0.31
N[C@@H](Cc1ccc([N+]([O-])(CCCl)CCCl)cc1)C(=O)O	0.117
